In PubChem BioAssay AID216 (DTP/NCI, 2004):
The list shows only some results of the screen, not a fair sample: it gathers tests that were run many times, whatever their T/C, doses with no T/C, and many T/C values between a quarter and a half above the control. Further doses and runs are listed elsewhere. T/C is the treated group as % of the vehicle group. Some entries give survivors of the animals treated and no T/C: the source files T/C as zero there, which appears to mark a toxic dose or a test without result, not a measured value. Some survivor counts are full or nearly so, which does not show that the dose was tolerated: the source hardly ever lists a survival T/C far under the control, and the zero likely stands for such cases as well. Counts of survivors are from the toxicity check (mostly the fifth day) where no day follows; animals may have died later. Schedule codes are those of the source, read here as Q, the interval in days (D) or hours (H), X, the number of doses. Some schedules carry Z or #; the key to these is not given. Some doses were run more than once; the values are given in rising order. Where survival is the endpoint, this PubChem deposit counts one and a half times the control or more as active, and values a quarter to a half above the control carry no call in these data; other NCI protocols may use other cut-offs. Some T/C values carry the count of animals alive at the toxicity check (mostly the fifth day); without a count, all were alive then. Signs of the kind (2×) say how often a value occurs here.

Tested on: BDF1 mice, P288 leukemia ip, survival T/C
Test: NCI In Vivo Anticancer Drug Screen. Data for tumor model P288 Lymphocytic Leukemia (intraperitoneal) in B6D2F1 (BDF1) mice
Conditions: higher T/C = longer survival
Experimental: The antitumor activity of compounds was measured in mice bearing transplantable tumors. Survival or tumor size were measured and the results are expressed as the measurement made in the treated group (T) divided by the measurement made in the vehicle treated control group (C). The tumor model used in this assay is P288 Lymphocytic Leukemia (intraperitoneal) in B6D2F1 (BDF1) mice

[1] = T/C endpoint: survival time, mean or median, dose: 240.0 mg/kg/injection, schedule: Q01DX010 (ip), vehicle: saline
[2] = T/C endpoint: survival time, mean or median, dose: 20.0 mg/kg/injection, schedule: Q01DX010 (ip), vehicle: saline
[3] = T/C endpoint: survival time, mean or median, dose: 40.0 mg/kg/injection, schedule: Q01DX010 (ip), vehicle: saline

In the case of `O=C(Nc1ccc(NC(=O)Nc2cccc(C3=NCCN3)c2)cc1)Nc1cccc(C2=NCCN2)c1`, the T/C [1] is reported as 147 % of control and the T/C (T/C endpoint: survival time, mean or median, dose: 480.0 mg/kg/injection, schedule: Q01DX010 (ip), vehicle: saline) is reported as 147 % of control.

In the case of `N#CCSc1ncnc2nc[nH]c12`, the survivor count (T/C endpoint: survival time, mean or median, dose: 15.0 mg/kg/injection, schedule: Q01DX010 (ip), vehicle: saline) is reported as 6 of 6, the survivor count (T/C endpoint: survival time, mean or median, dose: 25.0 mg/kg/injection, schedule: Q01DX Z (ip), vehicle: carboxymethylcellulose (CMC)) is reported as 6 of 6 and the survivor count (T/C endpoint: survival time, mean or median, dose: 30.0 mg/kg/injection, schedule: Q01DX010 (ip), vehicle: saline) is reported as 6 of 6. The survivor count (T/C endpoint: survival time, mean or median, dose: 60.0 mg/kg/injection, schedule: Q01DX010 (ip), vehicle: saline) was 6 of 6, the survivor count (T/C endpoint: survival time, mean or median, dose: 100.0 mg/kg/injection, schedule: Q01DX Z (ip), vehicle: carboxymethylcellulose (CMC)) was 3 of 6 and 6 of 6 and the survivor count (T/C endpoint: survival time, mean or median, dose: 120.0 mg/kg/injection, schedule: Q01DX010 (ip), vehicle: saline) was 6 of 6. For the same molecule, the survivor count (T/C endpoint: survival time, mean or median, dose: 200.0 mg/kg/injection, schedule: Q01DX Z (ip), vehicle: carboxymethylcellulose (CMC)) was 2 of 6 and the survivor count [1] was 3 of 6.

`OCC1OC(n2cnc3c(=S)nc[nH]c32)C(O)C1O` (stereo unspecified) was tested, and the T/C [2] was 94, 100, 117 % of control, the survivor count [2] was 6 of 6 and the T/C [3] was 88 [5 of 6 alive], 94, 105 % of control. The survivor count [3] was 6 of 6, the T/C (T/C endpoint: survival time, mean or median, dose: 80.0 mg/kg/injection, schedule: Q01DX010 (ip), vehicle: saline) was 88, 90, 94 % of control (2×) and the T/C (T/C endpoint: survival time, mean or median, dose: 160.0 mg/kg/injection, schedule: Q01DX010 (ip), vehicle: saline) was 90, 94 [5 of 6 alive], 100, 105 % of control. The survivor count (T/C endpoint: survival time, mean or median, dose: 500.0 mg/kg/injection, schedule: Q01DX Z (ip), vehicle: carboxymethylcellulose (CMC)) was 6 of 6.

With `CN(Cc1cnc2nc(N)nc(N)c2n1)c1ccc(C(=O)N[C@@H](CCC(=O)O)C(=O)O)cc1` the T/C (T/C endpoint: median survival time, dose: 0.19 mg/kg/injection, schedule: Q01DX009 (ip), vehicle: sodium bicarbonate) was 141 % of control, the T/C (T/C endpoint: survival time, mean or median, dose: 0.19 mg/kg/injection, schedule: Q01DX010 (ip), vehicle: other) was 127 (2×) and 148 % of control and the T/C (T/C endpoint: survival time, mean or median, dose: 0.31 mg/kg/injection, schedule: Q01DX Z (ip), vehicle: other) was 148 % of control. The T/C (T/C endpoint: survival time, mean or median, dose: 0.62 mg/kg/injection, schedule: Q01DX Z (ip), vehicle: other) was 147 % of control, the T/C (T/C endpoint: survival time, mean or median, dose: 2.5 mg/kg/injection, schedule: Q01DX Z (ip), vehicle: other) was 132 % of control and the T/C (T/C endpoint: survival time, mean or median, dose: 3.0 mg/kg/injection, schedule: Q01DX010 (ip), vehicle: other) was 140 % of control. For the same molecule, the T/C (T/C endpoint: survival time, mean or median, dose: 3.0 mg/kg/injection, schedule: Q01DX Z (ip), vehicle: other) was 126 % of control.

In the case of `C[C@]12CC[C@H](OC3OC(CO)C(O)C(O)C3O)C[C@H]1CC[C@@H]1[C@@H]2CC[C@]2(C)[C@@H](C3=CCOC3=O)CC[C@]12O` (stereo partly specified), the survivor count (T/C endpoint: survival time, mean or median, dose: 8.0 mg/kg/injection, schedule: Q01DX Z (ip), vehicle: saline) is reported as 3 of 6 and the survivor count (T/C endpoint: survival time, mean or median, dose: 16.0 mg/kg/injection, schedule: Q01DX Z (ip), vehicle: saline) is reported as 0 of 6.
